In patent US20110176995A1 (Chugai, published 2011) one finds binding data, which are given here for 2 molecules.

Results are given in words; binding and its absence hold for the method and conditions named. Some results given as binding are weak or reduced against the parent protein; the word gives no strength. Where a sequence is shown, tags or fusion partners need not be part of it.

The target in assay [1] is T1, GST fusion protein with GPR49 amino acids from positions 510 to 529 (human).
T1 sequence: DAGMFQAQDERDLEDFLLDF
Put plainly: Western blotting of GST fusion proteins. (Immunoblotting shows a protein as a band on a membrane.)

Assay [2] concerns the target T2, GST fusion protein with GPR49 amino acids from positions 517 to 537 (human).
T2 sequence: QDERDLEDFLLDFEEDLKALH
Put plainly: Western blotting of GST fusion proteins.

B1: anti-GPR49 monoclonal antibody 2T15E-2 (antibody, mouse IgG1, V domains shown)
VH: EVQLVESGGGLVKPGGSLKISCAASGFTSSNYAMSWVRQTPEKRLEWVATISSGGGYTYYPDSEKGRFAISRDNAKNTLYLQMSGLRSEDTAMYYCATQLYYRSHYYSMDYWGQGSSVTVSS
VL: QIVLTQSPAIMSASPGEKVTMTCSASSSISYMHWYQQKSGTSPKRWIYDTSKLASGVPARFSGSGSGTSYSLTISSMEAEDAATYYCQQWHSKPATFGAGTKLELK
notes: Mouse IgG1 from hybridoma; light chain amplified with a kappa primer
As to B1, the binding entry in assay [1] is recorded as “binds”.

B2: anti-GPR49 monoclonal antibody 2U1E-1 (antibody, mouse IgG1, V domains shown)
VH: QVQLQQPGAELVEPGASVKLSCKASGYTFTNYYMYWVKQRPGQGLEWIGGINPNNGGTNFNEKFKSKATLTVDKSSSTAYMQLSSLTSEDSAVYYCTGIYYRYNWHFGVWGAGTTVTVSS
VL: DVLMTQTPLSLPVSLGDQASISCRSSQTIVHSNGNTYLEWYLQKPGQSPKLLIYKVSNRFSGVPDRFSGSGSGTDFTLKIYRVEAEDLGIYYCFQGSHVPWTFGGGTKLEIK
notes: as for B1
With B2, the binding result in assay [2] was “binds”.
